Data as given in paper PMC1868955, “Crystal Structure of the P Pilus Rod Subunit PapA” (PLoS Pathogens, 2007).
No constants are given. Whether binding was seen depends on the method and setting. Some entries that bind do so weakly or less than the wild type. For some of these results: Tags and fused reporters may be left off the sequences shown.

Legend:
[1] = target: PapA wild-type (uropathogenic Escherichia coli) (UniProt P04127); assay: SEC; fractions of the PapD/(PapA)2 peak pooled and run again on gel filtration 24 hours later; unpublished data; both purified
[2] = target: T1, PapDHis (uropathogenic Escherichia coli) (UniProt P15319); assay: SEC; gel filtration of co-expressed PapDHis/PapA complexes immediately after purification; Superdex75 120 ml, 20 mM TrisHCl pH 7.5, 20 mM NaCl; both purified
T1 sequence: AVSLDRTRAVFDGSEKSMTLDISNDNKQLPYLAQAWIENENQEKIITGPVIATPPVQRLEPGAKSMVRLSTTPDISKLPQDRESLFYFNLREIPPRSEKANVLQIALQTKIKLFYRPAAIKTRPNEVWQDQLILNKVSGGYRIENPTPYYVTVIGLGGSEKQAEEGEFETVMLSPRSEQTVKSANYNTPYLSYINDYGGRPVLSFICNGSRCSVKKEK

[3] = target: PapA wild-type (uropathogenic Escherichia coli) (UniProt P04127); assay: as above
[4] = target: PapA wild-type (uropathogenic Escherichia coli) (UniProt P04127); assay: negative-stain electron microscopy; PapD/PapA samples frozen and thawed five times at 150 μg/ml in 10–20 mM TrisHCl pH 7.6, 20–50 mM NaCl; used the same day or kept at 4 °C up to 40 d; 1% uranyl acetate; both purified

Measured: binding

B1: PapA wild-type (protein, UniProt P04127 23-185)
chain: APTIPQGQGKVTFNGTVVDAPCSISQKSADQSIDFGQLSKSFLEAGGVSKPMDLDIELVNCDITAFKGGNGAKKGTVKLAFTGPIVNGHSDELDTNGGTGTAIVVQGAGKNVVFDGSEGDANTLKDGENVLHYTAVVKKSSAVGAAVTEGAFSAVANFNLTYQ
binds: [1] | [2] | [3] | [4]
